# Measurements from the supplement of paper PMC7666118.
# Amino acid sequences for entries named in this document (tags omitted). A change or cut given only in a name is not applied to a line headed by its entry.
# UniProt Q8NC96: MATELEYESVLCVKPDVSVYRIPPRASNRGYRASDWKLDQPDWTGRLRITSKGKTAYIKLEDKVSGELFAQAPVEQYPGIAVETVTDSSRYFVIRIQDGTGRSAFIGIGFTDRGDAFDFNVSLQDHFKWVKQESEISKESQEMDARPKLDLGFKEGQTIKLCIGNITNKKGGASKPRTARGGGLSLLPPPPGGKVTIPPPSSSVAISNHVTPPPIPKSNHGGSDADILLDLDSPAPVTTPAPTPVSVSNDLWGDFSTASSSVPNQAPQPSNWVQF
# UniProt Q13126: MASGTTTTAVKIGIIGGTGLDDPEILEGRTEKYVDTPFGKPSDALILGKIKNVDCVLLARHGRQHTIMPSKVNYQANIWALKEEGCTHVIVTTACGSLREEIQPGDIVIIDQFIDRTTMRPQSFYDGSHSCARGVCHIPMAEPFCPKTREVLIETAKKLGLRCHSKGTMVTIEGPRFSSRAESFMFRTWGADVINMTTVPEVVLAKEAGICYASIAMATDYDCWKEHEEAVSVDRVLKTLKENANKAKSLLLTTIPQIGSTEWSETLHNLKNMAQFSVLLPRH
# UniProt Q9NV92: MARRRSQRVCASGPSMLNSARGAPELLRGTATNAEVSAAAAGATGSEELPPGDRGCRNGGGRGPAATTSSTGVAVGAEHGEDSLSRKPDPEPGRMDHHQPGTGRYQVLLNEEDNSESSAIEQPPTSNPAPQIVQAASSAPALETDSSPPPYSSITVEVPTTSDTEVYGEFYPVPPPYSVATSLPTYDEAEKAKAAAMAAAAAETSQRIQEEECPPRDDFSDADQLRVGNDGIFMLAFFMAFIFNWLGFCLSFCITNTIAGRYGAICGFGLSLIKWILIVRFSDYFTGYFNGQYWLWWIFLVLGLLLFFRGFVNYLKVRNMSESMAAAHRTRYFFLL
# UniProt Q9NPE3: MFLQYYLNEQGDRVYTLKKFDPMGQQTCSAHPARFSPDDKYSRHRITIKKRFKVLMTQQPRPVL
# UniProt Q9GZT8: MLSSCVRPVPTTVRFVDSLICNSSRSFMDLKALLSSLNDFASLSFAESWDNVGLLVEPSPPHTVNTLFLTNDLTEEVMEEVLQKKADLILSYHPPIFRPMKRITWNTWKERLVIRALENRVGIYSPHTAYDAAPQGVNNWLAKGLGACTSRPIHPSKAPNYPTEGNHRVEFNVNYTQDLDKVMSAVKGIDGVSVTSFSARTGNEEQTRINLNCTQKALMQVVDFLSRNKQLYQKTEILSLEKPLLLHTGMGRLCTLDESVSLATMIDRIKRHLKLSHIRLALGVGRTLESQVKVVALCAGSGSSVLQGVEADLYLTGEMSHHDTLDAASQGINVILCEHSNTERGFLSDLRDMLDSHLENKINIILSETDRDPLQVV
# UniProt Q9NX14, whole entry: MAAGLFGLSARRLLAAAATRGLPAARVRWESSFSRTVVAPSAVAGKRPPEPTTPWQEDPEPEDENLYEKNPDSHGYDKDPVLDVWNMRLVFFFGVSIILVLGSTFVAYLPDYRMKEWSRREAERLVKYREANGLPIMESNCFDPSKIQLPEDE
# UniProt Q9Y2I1: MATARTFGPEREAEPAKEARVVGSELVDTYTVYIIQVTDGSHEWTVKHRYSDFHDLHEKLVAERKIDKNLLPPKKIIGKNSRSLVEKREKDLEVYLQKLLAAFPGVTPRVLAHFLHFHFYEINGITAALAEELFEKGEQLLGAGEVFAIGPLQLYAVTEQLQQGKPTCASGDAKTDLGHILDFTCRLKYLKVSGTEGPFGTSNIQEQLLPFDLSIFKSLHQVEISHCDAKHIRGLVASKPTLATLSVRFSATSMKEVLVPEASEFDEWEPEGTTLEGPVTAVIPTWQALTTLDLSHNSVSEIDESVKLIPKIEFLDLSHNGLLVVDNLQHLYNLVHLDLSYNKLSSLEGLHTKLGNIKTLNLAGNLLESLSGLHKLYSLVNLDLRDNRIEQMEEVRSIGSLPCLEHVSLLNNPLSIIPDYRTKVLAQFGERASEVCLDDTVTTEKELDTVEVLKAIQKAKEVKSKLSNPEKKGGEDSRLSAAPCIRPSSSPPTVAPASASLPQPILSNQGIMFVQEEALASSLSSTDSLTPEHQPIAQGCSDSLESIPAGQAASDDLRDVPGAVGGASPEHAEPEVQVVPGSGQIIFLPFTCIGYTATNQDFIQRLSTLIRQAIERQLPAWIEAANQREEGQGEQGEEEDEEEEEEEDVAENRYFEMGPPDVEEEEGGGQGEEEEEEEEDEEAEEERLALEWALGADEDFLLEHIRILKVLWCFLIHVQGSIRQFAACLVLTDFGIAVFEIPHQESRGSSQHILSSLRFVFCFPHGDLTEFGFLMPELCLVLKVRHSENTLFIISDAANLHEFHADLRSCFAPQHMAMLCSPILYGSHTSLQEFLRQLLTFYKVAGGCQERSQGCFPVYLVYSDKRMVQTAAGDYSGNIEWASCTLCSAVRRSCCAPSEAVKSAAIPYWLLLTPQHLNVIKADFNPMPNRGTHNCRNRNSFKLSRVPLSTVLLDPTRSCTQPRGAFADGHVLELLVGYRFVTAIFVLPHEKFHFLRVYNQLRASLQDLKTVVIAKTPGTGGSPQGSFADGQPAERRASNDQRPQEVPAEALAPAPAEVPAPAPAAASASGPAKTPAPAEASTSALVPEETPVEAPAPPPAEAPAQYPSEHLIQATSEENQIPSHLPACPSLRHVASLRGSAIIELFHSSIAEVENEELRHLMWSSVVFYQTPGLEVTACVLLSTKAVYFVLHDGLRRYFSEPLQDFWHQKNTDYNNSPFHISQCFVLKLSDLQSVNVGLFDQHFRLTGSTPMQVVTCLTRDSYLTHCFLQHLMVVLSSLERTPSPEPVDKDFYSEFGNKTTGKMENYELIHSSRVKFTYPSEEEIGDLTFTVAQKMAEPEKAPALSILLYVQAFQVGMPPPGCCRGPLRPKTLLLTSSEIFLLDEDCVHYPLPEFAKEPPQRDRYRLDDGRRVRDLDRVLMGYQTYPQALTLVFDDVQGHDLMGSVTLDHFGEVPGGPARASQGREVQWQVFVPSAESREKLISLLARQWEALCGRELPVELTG
# UniProt Q9BXJ9: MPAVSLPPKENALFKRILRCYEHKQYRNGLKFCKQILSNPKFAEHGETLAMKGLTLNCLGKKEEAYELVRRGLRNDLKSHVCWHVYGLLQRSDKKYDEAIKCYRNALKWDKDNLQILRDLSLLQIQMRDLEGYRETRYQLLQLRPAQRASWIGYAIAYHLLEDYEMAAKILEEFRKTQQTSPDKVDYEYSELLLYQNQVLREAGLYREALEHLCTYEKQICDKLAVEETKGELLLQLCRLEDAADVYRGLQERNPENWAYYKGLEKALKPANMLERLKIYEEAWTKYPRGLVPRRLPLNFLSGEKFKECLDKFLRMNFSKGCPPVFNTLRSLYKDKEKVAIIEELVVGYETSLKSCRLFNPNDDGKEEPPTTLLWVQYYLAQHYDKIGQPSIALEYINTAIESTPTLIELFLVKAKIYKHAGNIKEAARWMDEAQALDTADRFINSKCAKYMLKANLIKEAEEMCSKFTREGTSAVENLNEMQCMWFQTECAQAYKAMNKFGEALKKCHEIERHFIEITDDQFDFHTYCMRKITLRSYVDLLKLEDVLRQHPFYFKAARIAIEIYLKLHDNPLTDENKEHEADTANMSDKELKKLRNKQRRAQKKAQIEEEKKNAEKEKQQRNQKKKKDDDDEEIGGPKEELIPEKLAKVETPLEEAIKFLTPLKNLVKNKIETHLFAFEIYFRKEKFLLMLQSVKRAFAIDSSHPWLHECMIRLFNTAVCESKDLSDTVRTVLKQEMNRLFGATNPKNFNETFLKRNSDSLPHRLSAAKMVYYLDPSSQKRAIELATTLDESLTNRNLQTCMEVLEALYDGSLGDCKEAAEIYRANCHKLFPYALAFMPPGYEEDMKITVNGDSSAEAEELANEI
# UniProt Q9Y697: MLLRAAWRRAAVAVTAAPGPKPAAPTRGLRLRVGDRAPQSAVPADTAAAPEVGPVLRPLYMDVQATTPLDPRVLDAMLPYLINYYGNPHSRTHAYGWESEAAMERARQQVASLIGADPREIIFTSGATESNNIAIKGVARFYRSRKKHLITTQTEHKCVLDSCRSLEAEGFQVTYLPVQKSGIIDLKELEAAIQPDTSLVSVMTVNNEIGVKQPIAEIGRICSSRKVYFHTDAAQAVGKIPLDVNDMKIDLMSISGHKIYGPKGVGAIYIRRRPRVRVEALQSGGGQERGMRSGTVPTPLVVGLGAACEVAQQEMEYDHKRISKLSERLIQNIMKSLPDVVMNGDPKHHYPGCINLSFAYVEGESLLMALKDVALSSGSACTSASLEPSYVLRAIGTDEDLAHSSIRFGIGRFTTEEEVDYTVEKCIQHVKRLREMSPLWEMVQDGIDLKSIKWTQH
# UniProt Q9Y3C1: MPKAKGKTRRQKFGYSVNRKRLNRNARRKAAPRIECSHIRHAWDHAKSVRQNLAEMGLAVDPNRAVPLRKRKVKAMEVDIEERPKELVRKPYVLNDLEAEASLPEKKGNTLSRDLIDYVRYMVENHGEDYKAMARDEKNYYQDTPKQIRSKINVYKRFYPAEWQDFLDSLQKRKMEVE
# UniProt B0I1T2: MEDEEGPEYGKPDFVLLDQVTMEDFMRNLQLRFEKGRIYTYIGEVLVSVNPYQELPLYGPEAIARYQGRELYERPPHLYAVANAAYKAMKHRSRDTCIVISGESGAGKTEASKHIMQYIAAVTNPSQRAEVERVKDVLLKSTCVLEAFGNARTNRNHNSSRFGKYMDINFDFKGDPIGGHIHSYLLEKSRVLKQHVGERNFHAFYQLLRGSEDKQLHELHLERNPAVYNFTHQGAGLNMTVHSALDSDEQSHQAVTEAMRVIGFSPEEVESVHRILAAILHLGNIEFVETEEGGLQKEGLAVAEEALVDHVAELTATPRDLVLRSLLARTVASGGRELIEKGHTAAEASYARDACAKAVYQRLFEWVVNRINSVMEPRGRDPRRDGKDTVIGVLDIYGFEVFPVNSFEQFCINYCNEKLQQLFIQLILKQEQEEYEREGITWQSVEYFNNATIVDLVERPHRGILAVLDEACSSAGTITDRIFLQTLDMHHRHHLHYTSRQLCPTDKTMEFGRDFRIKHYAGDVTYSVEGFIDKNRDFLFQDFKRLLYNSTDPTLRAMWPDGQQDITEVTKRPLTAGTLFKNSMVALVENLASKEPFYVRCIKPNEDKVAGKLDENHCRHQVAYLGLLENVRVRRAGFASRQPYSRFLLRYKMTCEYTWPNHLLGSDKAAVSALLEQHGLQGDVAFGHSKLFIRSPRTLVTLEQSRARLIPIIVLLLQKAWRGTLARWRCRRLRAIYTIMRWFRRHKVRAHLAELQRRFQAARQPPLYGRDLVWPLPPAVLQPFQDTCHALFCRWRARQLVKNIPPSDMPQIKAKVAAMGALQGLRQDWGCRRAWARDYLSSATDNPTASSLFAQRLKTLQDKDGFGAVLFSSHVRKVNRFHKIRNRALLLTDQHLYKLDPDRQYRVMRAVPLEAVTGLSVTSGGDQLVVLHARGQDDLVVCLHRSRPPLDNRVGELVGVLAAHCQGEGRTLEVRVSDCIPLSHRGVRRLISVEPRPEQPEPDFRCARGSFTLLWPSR
# UniProt Q9Y639: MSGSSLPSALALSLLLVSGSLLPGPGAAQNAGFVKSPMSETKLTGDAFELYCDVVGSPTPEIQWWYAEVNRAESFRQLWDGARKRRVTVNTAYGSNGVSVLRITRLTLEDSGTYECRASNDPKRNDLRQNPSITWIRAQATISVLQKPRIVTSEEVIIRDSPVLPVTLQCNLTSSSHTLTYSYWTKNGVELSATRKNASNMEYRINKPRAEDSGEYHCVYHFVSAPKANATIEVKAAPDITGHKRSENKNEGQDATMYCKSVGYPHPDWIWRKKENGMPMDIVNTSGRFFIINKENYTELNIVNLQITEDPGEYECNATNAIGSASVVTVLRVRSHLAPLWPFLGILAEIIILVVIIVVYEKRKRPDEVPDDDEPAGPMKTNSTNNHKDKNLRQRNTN
# UniProt Q9UMX5: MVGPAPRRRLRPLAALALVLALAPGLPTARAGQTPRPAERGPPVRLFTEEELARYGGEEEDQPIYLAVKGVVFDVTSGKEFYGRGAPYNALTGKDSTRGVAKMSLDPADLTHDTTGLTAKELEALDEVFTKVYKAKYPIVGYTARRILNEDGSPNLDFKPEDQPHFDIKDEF
# UniProt Q15233: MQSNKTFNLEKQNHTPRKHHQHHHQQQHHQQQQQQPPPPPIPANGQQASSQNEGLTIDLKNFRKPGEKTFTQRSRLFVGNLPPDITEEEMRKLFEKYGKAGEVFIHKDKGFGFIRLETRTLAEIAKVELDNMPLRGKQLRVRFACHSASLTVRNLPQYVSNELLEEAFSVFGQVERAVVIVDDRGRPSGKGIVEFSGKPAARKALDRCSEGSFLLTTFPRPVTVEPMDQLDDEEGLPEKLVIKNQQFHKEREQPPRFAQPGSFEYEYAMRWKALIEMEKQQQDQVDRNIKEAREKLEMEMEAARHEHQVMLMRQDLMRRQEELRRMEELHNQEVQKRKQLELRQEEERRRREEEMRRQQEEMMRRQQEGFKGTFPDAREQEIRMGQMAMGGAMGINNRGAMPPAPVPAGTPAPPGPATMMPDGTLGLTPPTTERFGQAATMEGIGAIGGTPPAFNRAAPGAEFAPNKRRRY
# Some of the results follow.
# Compound: COc1ccc(Cn2ccc3ccc(C(=O)NO)cc32)cc1
# Assay: dose-dependent thermal stabilisation call (2D-TPP, DLPTP, 10% FDR) (binary (1 = stabilised)); higher = stabilised by the compound
# Settings: system: HL-60 intact cells; concentration range 0.04-10 µM
row,Target,dose-dependent thermal stabilisation call
1,NECAP1 (UniProt Q8NC96),inactive: 0
2,NDUFAB1 (UniProt O14561),inactive: 0
3,NLN (UniProt Q9BYT8),active: 1
4,NIPA2 (UniProt Q8N8Q9),inactive: 0
5,MTAP (UniProt Q13126),inactive: 0
6,NAGA (UniProt P17050),inactive: 0
7,NDFIP2 (UniProt Q9NV92),inactive: 0
8,NOP10 (UniProt Q9NPE3),inactive: 0
9,NIF3L1 (UniProt Q9GZT8),inactive: 0
10,NIT1 (UniProt Q86X76),inactive: 0
11,NDUFB11 (UniProt Q9NX14),inactive: 0
12,NAPA (UniProt P54920),inactive: 0
13,NISCH (UniProt Q9Y2I1),inactive: 0
14,MTIF2 (UniProt P46199),inactive: 0
15,NMT1 (UniProt P30419),inactive: 0
16,NARG1 (UniProt Q9BXJ9),inactive: 0
17,MYST2 (UniProt O95251),inactive: 0
18,NFS1 (UniProt Q9Y697),inactive: 0
19,NOP16 (UniProt Q9Y3C1),inactive: 0
20,NEDD1 (UniProt Q8NHV4),inactive: 0
21,MRPS9 (UniProt P82933),inactive: 0
22,MYO1G (UniProt B0I1T2),inactive: 0
23,NPTN (UniProt Q9Y639),inactive: 0
24,NENF (UniProt Q9UMX5),inactive: 0
25,NADSYN1 (UniProt Q6IA69),inactive: 0
26,NACC1 (UniProt Q96RE7),inactive: 0
27,NONO (UniProt Q15233),inactive: 0

# A different layout for some results above.
row | Target | dose-dependent thermal stabilisation call
6 | NAGA (UniProt P17050) | inactive: 0
8 | NOP10 (UniProt Q9NPE3) | inactive: 0
